Results: PubChem BioAssay AID504444 (National Center for Advancing Translational Sciences (NCATS), 2011)
Out of some 360,000 compounds screened, about 7,500 (2.1%) were called active. The shares of active, inactive and inconclusive entries below differ from those in the screen. The call rests on the fitted dose curve; in most records, active means well fitted inhibition curve with a large enough effect; inconclusive means small, poorly fitted or top-dose-only effect, or effect the other way; inactive means flat fitted curve, though single readings scatter. Where the call is inconclusive, the potency comes from a doubtful curve fit.

Assay: Nrf2 qHTS screen for inhibitors; further: nearly all actives have a fitted effect of over 60% in size
Conditions: A549 ARE-Fluc reporter, luciferase luminescence, 18-24 h; activity change, negative = inhibition: at 46 µM (top of the series)
Outline: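 Two sequential reads on A549 ARE_Fluc cells exposed to compound for 18-24 h: a CellTiter-Fluor fluorescence read for viability, then a luciferase luminescence read for Nrf2/ARE activity.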
On the % scale 0 is the no-effect control and ±100 the full control effect; potency means the concentration at half of the fitted maximal effect.

Structure (SMILES)	Potency	activity change, negative = inhibition
CC(=O)Nc1ccc(OCc2cccc(-c3nc4ccccc4c(=O)n3Cc3ccco3)c2)cc1	inconclusive: 18.4 µM [falling, single point]	
O=C(N/N=C/C=C/c1cccc([N+](=O)[O-])c1)c1ccncc1	inconclusive: 29.1 µM [activator, single point]	
Cc1cc(C)c2[nH]c(O)c(N=NC(=S)NCC3CCCO3)c2c1 (stereo unspecified)		inactive: 3.48%
Cc1ccc(NC(NC(=O)Cc2ccccc2)C(Cl)(Cl)Cl)cc1 (stereo unspecified)		inactive: -6.78%
Cc1ccc(S(=O)(=O)N2CCN(S(C)(=O)=O)C2)cc1	inconclusive: 5.17 µM [activator, partial curve]	
O=C(Nc1ccccc1F)c1ccc(S(=O)(=O)N2CCCCCC2)cc1	inconclusive: 29.1 µM [falling, single point]	
O=C1CCc2ccc(OCCCCN3CCN(c4cccc(Cl)c4Cl)CC3)cc2N1	inconclusive: 29.1 µM [falling, single point]	
CC(C)(C)c1ccc(/C=N/Nc2nncn2N)cc1		inactive: -25.9%
S=C(NCCN1CCOCC1)N/N=C/c1cccs1		inactive: 4.47%
Cc1ccc(C)c(S(=O)(=O)N2CCN(C(=O)c3ccc(N4CCCC4)c([N+](=O)[O-])c3)CC2)c1	inconclusive: 23.1 µM [falling, partial curve, poor fit]	
COc1cc2c(cc1NCc1ccccn1)oc1ccccc12	inconclusive: 6.51 µM [activator, full curve, poor fit]	
COc1cccc(C(c2nnnn2Cc2ccco2)N2CCN(c3cccc(C)c3C)CC2)c1OC (stereo unspecified)	active: 23.1 µM	
CC(=O)N1CCN(S(=O)(=O)c2ccc(S(=O)(=O)NCC(C)C)cc2)CC1	inconclusive: 2.59 µM [falling, partial curve, poor fit]	
Cc1ccc(COc2ccc3oc(-c4ccccc4)c(C(=O)O)c3c2)cc1		inactive: -13.1%
COc1ccc(/C=N\NC(=O)c2ccccc2)cc1COc1ccc(F)cc1	inconclusive: 29.1 µM [falling, single point]	
O=C1NC(c2cc3c(cc2Cl)OCO3)Oc2ccccc21 (stereo unspecified)	inconclusive: 6.51 µM [falling, single point]	
Cc1nnc(SCC(=O)c2ccc(Cl)cc2)n(N)c1=O	inconclusive: 10.3 µM [activator, partial curve]	
O=C(Nc1cc(Cl)ccc1O)C1CC(c2c(F)cccc2Cl)=NO1 (stereo unspecified)		inactive: -6.61%
COC(=O)c1cc(OC)c(OC)cc1NC(=O)c1cccc(OC)c1OC	inconclusive: 29.1 µM [falling, partial curve, poor fit]	
CCc1nc2ccc(C(=O)N(C)CC(=O)Nc3ccccc3C(F)(F)F)cc2nc1CC		inactive: -10.2%
CC(C)OC(=O)N(C)c1ccc(C(O)(C(F)(F)F)C(F)(F)F)cc1	inconclusive: 29.1 µM [falling, single point]	
CCNC(=O)c1c(NC(=O)COc2ccc(F)cc2)sc2c1CCCC2		inactive: -4.2%
COc1ccc(-c2ccc(CCC(=O)O)o2)cc1	inconclusive: 2.59 µM [activator, full curve]	

11 structures from above, arranged by number of heavy atoms, ascending.
Structure (SMILES)	Potency	activity change, negative = inhibition
Cc1ccc(S(=O)(=O)N2CCN(S(C)(=O)=O)C2)cc1	inconclusive: 5.17 µM [activator, partial curve]	
Cc1nnc(SCC(=O)c2ccc(Cl)cc2)n(N)c1=O	inconclusive: 10.3 µM [activator, partial curve]	
O=C1NC(c2cc3c(cc2Cl)OCO3)Oc2ccccc21 (stereo unspecified)	inconclusive: 6.51 µM [falling, single point]	
O=C(N/N=C/C=C/c1cccc([N+](=O)[O-])c1)c1ccncc1	inconclusive: 29.1 µM [activator, single point]	
Cc1cc(C)c2[nH]c(O)c(N=NC(=S)NCC3CCCO3)c2c1 (stereo unspecified)		inactive: 3.48%
O=C(Nc1cc(Cl)ccc1O)C1CC(c2c(F)cccc2Cl)=NO1 (stereo unspecified)		inactive: -6.61%
O=C(Nc1ccccc1F)c1ccc(S(=O)(=O)N2CCCCCC2)cc1	inconclusive: 29.1 µM [falling, single point]	
COc1ccc(/C=N\NC(=O)c2ccccc2)cc1COc1ccc(F)cc1	inconclusive: 29.1 µM [falling, single point]	
O=C1CCc2ccc(OCCCCN3CCN(c4cccc(Cl)c4Cl)CC3)cc2N1	inconclusive: 29.1 µM [falling, single point]	
CCc1nc2ccc(C(=O)N(C)CC(=O)Nc3ccccc3C(F)(F)F)cc2nc1CC		inactive: -10.2%
CC(=O)Nc1ccc(OCc2cccc(-c3nc4ccccc4c(=O)n3Cc3ccco3)c2)cc1	inconclusive: 18.4 µM [falling, single point]	

Following part

Structure (SMILES)	Potency	activity change, negative = inhibition
O=C(Nc1ccc(Br)cc1)N1CCC(CN2CCCC2)CC1	inconclusive: 23.1 µM [falling, single point]	
CCOCCCNC(=S)Nc1cc(OCC)c(NC(=O)c2ccco2)cc1OCC		inactive: 10.6%
COC(=O)N/N=C/c1cn(Cc2c(Cl)cccc2Cl)c2ccccc12		inactive: -2.26%
CC(=O)c1c(C)[nH]c(C(=O)OCC(=O)c2c(N)n(CC(C)C)c(=O)n(C)c2=O)c1C	active: 18.4 µM	
CCOc1ccc(C2C(C(=O)Nc3ccc(OC)cc3)=C(C)Nc3nc(SCc4ccc(Cl)cc4)nn32)cc1 (stereo unspecified)	inconclusive: 0.58 µM [falling, partial curve, poor fit]	
COc1cc(OC)cc(C(=O)NCCCNC(=O)c2cccnc2)c1	inconclusive: 3.66 µM [falling, partial curve, poor fit]	
Oc1ccc(-c2nnc(SCc3ccccc3)o2)cc1	inconclusive: 11.6 µM [activator, partial curve]	
Nc1c(C(=O)NCc2ccc(F)cc2)c2nc3ccccc3nc2n1CCCN1CCOCC1	inconclusive: 20.6 µM [falling, partial curve, poor fit]	
CCCCn1c(=O)nc2n(-c3ccccc3C)c3ccccc3cc-2c1=O		inactive: -12.6%
C/C(=N\Nc1nc(C(C)(C)C)cs1)c1ccccc1	inconclusive: 6.51 µM [activator, partial curve]	
COc1ccc(C(=O)NC(Oc2ccccc2)C(Cl)(Cl)Cl)cc1 (stereo unspecified)	inconclusive: 29.1 µM [falling, single point]	
Cc1c(P(=S)(c2ccccc2)c2ccccc2)c2ccccc2n1C/C=C/c1ccccc1		inactive: 7.61%
COC(=O)Cc1cc(=O)n2[nH]c(C)cc2n1	inconclusive: 25.9 µM [activator, partial curve]	
CC(=O)N1CCc2cc(S(=O)(=O)N3CCOCC3)ccc21		inactive: 11.6%
Cc1ccc2nc(-c3ccc(C)c(NC(=O)Cc4ccccc4)c3)oc2c1	inconclusive: 25.9 µM [activator, single point]	
COc1ccc(C(=O)Nc2nnc(SCC(=O)NC3CCCC3)s2)c(OC)c1	inconclusive: 0.184 µM [activator, full curve, poor fit]	
O=C(CCCCCn1c(=S)[nH]c2cc3c(cc2c1=O)OCO3)N1CCN(c2ccc(F)cc2)CC1	inconclusive: 10.3 µM [falling, partial curve, poor fit]	
C=CCN1C(=O)c2ccc(C(=O)N(C)CC(=O)Nc3ccccc3Br)cc2C1=O		inactive: 6.55%
Cc1ccc(S(=O)(=O)N2CCOCC2)cc1C(=O)OCC(=O)NCCc1ccc(F)cc1	inconclusive: 18.4 µM [falling, partial curve, poor fit]	
COC(=O)Nc1nc(-c2ccccc2)c(C(=O)c2ccc(Cl)cc2)s1		inactive: -12.7%
CC(NC(=O)c1cccs1)C1CCCO1 (stereo unspecified)		inactive: 3.25%
O=C(CCc1nc2ccccc2[nH]1)N1CCc2ccccc2C1		inactive: -23.5%
CNc1nc(-c2ccc3c(c2)CCN3C(=O)CC(C)(C)C)c(C)s1	inconclusive: 10.3 µM [activator, partial curve, poor fit]	
